Structures can show the parent of a compound that is named as a salt. This is one part of the list. Single values are uncertain, as repeats are few or missing.
Tested on: p95-ErbB2-MCF7
Assay: perinuclear lysosome accumulation (PNLA, size of LAMP2 puncta), robust Z-score vs plate median; higher = more perinuclear lysosome accumulation (reversal of invasive lysosome distribution)
Settings: 5 µM; 24 h

Row | Compound | perinuclear lysosome accumulation
1 | O=C1c2c(O)cccc2Cc2cccc(O)c21 [Anthralin] | 0.906
2 | COc1cc(C(=O)OCCCN2CCCN(CCCOC(=O)c3cc(OC)c(OC)c(OC)c3)CC2)cc(OC)c1OC [Dilazep dihydrochloride] | 1.25
3 | Cc1[nH]ccc2c1[nH]c1cc(=O)ccc12 [Harmol hydrochloride monohydrate] | -0.219
4 | CCN(CC)CCOC(=O)C1(C2CCCCC2)CCCCC1 [Dicyclomine hydrochloride] | -0.663
5 | CN1CCN(C2=Nc3ccccc3Oc3ccc(Cl)cc32)CC1 [Loxapine succinate] | -0.69
6 | NCc1ccccc1CC(=O)N[C@@H]1C(=O)N2C(C(=O)O)=C(CSc3nnnn3CC(=O)O)CS[C@H]12 [Ceforanide] | -1.63
7 | N=C(NCCCCCCNC(=N)NC(=N)Nc1ccc(Cl)cc1)NC(=N)Nc1ccc(Cl)cc1 [Chlorhexidine] | 2.05
8 | C[N+]1(C)CCC(OC(=O)C(O)(c2ccccc2)C2CCCC2)C1 (stereo unspecified) [Glycopyrrolate] | -0.775
9 | N#Cc1ccc(C(c2ccc(C#N)cc2)n2cncn2)cc1 [Letrozole] | -0.294
10 | Clc1ccc(CCC(Cn2ccnc2)Sc2c(Cl)cccc2Cl)cc1 (stereo unspecified) [Butoconazole nitrate] | 2.26
11 | O=C(O)Cc1ccc(-c2ccccc2)cc1 [Felbinac] | -0.459
12 | C[C@@H]1C[C@H]2[C@@H]3C[C@H](F)C4=CC(=O)C=C[C@]4(C)[C@@]3(F)[C@@H](O)C[C@]2(C)[C@@]1(O)C(=O)CO [Flumethasone] | -1.42
13 | O=C(O)c1cn(-c2ccc(F)cc2)c2cc(N3CCNCC3)c(F)cc2c1=O [Sarafloxacin] | -0.678
14 | CN1CCC(=C2c3ccccc3C=Cc3ccccc32)CC1 [Cyproheptadine hydrochloride] | -0.0466
15 | N=C(N)NC(=N)NCCc1ccccc1 [Phenformin hydrochloride] | -0.19
16 | CO[C@H]1/C=C/O[C@@]2(C)Oc3c(C)c(O)c4c(O)c(c(/C=N/N5CCN(C6CCCC6)CC5)c(O)c4c3C2=O)NC(=O)/C(C)=C\C=C\[C@H](C)[C@H](O)[C@@H](C)[C@@H](O)[C@@H](C)[C@H](OC(C)=O)[C@@H]1C [Rifapentine] | -0.99
17 | CC(C)(C)NC[C@@H](O)COc1cccc2c1CCCC2=O [(+) -Levobunolol hydrochloride] | -0.00176
18 | C[C@H]1O[C@H](O[C@H]2[C@H](O)[C@@H](O)[C@@H](O[C@H]3[C@H](O)[C@@H](O)C(O)O[C@@H]3CO)O[C@@H]2CO)[C@H](O)[C@@H](O)[C@@H]1N[C@H]1C=C(CO)[C@@H](O)[C@H](O)[C@H]1O (stereo partly specified) [Acarbose] | 1.18
19 | C=C1CC[C@H](O)C/C1=C/C=C1\CCC[C@]2(C)[C@@H]([C@H](C)CCCC(C)C)CC[C@@H]12 [Cholecalciferol] | -0.581
20 | CCCc1cc(C(N)=S)ccn1 [Prothionamide] | 0.474
21 | CC(=O)S[C@@H]1CC2=CC(=O)CC[C@]2(C)[C@H]2CC[C@@]3(C)[C@@H](CC[C@@]34CCC(=O)O4)[C@H]12 [Spironolactone] | -1.35
22 | CC(Cc1cccc(C(F)(F)F)c1)NCCOC(=O)c1ccccc1 (stereo unspecified) [Benfluorex hydrochloride] | 0.313
23 | C=CC(N)CCC(=O)O (stereo unspecified) [Vigabatrin] | -3.59
24 | NS(=O)(=O)c1cc(C2(O)NC(=O)c3ccccc32)ccc1Cl (stereo unspecified) [Chlorthalidone] | -0.568

Row | Compound | perinuclear lysosome accumulation
25 | CCN[C@H]1CN(CCCOC)S(=O)(=O)c2sc(S(N)(=O)=O)cc21 [Brinzolamide] | -0.688
26 | CC(=O)OCC(=O)[C@@]1(O)CC[C@H]2[C@@H]3CCC4=CC(=O)CC[C@]4(C)[C@H]3[C@@H](O)C[C@@]21C [Cortisol acetate] | -2.63
27 | CC(C)c1c(C(=O)Nc2ccccc2)c(-c2ccccc2)c(-c2ccc(F)cc2)n1CC[C@@H](O)C[C@@H](O)CC(=O)O [Atorvastatin] | -1.17
28 | Cc1ccc(C(=O)c2ccc(CC(=O)O)n2C)cc1 [Tolmetin sodium salt dihydrate] | 0.428
29 | COC(=O)Nc1nc2cc(C(=O)c3cccs3)ccc2[nH]1 [Nocodazole] | 3.73
30 | CCCCN(CCCC)CCCOC(=O)c1ccc(N)cc1 [Butacaine] | -1.29
31 | CC[N+](C)(CC)CCOC(=O)C1c2ccccc2Oc2ccccc21 [Methantheline bromide] | 0.502
32 | CC(=O)OCC(=O)[C@@]1(O)CC[C@H]2[C@@H]3CCC4=CC(=O)CC[C@]4(C)[C@@]3(F)[C@@H](O)C[C@@]21C [Fludrocortisone acetate] | -0.224
33 | OC(Cn1cncn1)(Cn1cncn1)c1ccc(F)cc1F [Fluconazole] | -0.113
34 | CCCOc1cc(N)ccc1C(=O)OCCN(CC)CC [Propoxycaine hydrochloride] | -0.795
35 | CC[N+](C)(C)c1cccc(O)c1 [Edrophonium chloride] | -0.479
36 | CC(C(=O)O)c1cccc(Oc2ccccc2)c1 (stereo unspecified) [Fenoprofen calcium salt dihydrate] | 2.16
37 | CCCc1ncc(C[n+]2ccccc2C)c(N)n1 [Amprolium hydrochloride] | -1.09
38 | CCn1cc(C(=O)O)c(=O)c2cc(F)c(N3CCNCC3)nc21 [Enoxacin] | 1.16
39 | CC(=O)OCC(=O)NCCCOc1cccc(CN2CCCCC2)c1 [Roxatidine Acetate HCl] | 0.73
40 | CC(C)(C)C(=O)OCOC(=O)[C@@H]1N2C(=O)[C@@H](/N=C/N3CCCCCC3)[C@H]2SC1(C)C [Pivmecillinam hydrochloride] | -2.01
41 | OCC(O)CN1CCN(c2ccccc2)CC1 (racemic) [Dropropizine (R,S)] | 1.55
42 | CNc1ncnc2c1ncn2[C@@H]1O[C@H](CO)[C@@H](O)[C@H]1O [N6-methyladenosine] | -0.429
43 | c1ccc2c(c1)CCCC2C1=NCCN1 (stereo unspecified) [Tetrahydrozoline hydrochloride] | 0.784
44 | C[C@@H](O)[C@H]1C(=O)N2C(C(=O)O)=C(SCCNC=N)C[C@H]12 [Imipenem] | 0.815
45 | CCCCCN(C)CCC(O)(P(=O)(O)O)P(=O)(O)O [Ibandronate] | 1.01
46 | C1N2CN3CN1CN(C2)C3 [Methenamine] | 0.769
47 | O=C1NCCN1c1ncc([N+](=O)[O-])s1 [Niridazole] | -0.804
48 | C=C(CC)C(=O)c1ccc(OCC(=O)O)c(Cl)c1Cl [Ethacrynic acid] | -1.13

Row | Compound | perinuclear lysosome accumulation
49 | Nc1ccc(S(=O)(=O)NC(=O)c2ccccc2)cc1 [Sulfabenzamide] | 0.828
50 | CCN(CC)CCCC(C)Nc1ccnc2cc(Cl)ccc12 (stereo unspecified) [Chloroquine diphosphate] | 0.794
51 | CN(C)[C@@H]1C(O)=C(C(N)=O)C(=O)[C@@]2(O)C(O)=C3C(=O)c4c(O)cccc4[C@@](C)(O)[C@H]3C[C@@H]12 [Tetracycline hydrochloride] | -0.0826
52 | C[C@]12CCC(=O)C=C1CC[C@@H]1[C@@H]2C(=O)C[C@@]2(C)[C@H]1CC[C@]2(O)C(=O)CO [Cortisone] | -1.2
53 | COCCCC/C(=N\OCCN)c1ccc(C(F)(F)F)cc1 [Fluvoxamine maleate] | 0.952
54 | OCCN1CCN(CCCN2c3ccccc3Sc3ccc(C(F)(F)F)cc32)CC1 [Fluphenazine dihydrochloride] | 3.09
55 | CC(C)(Oc1ccc(CCNC(=O)c2ccc(Cl)cc2)cc1)C(=O)O [Bezafibrate] | 0.922
56 | c1ccc(CC2=NCCN2)cc1 [Tolazoline hydrochloride] | -0.286
57 | O=C1c2ccccc2C(=O)C1c1ccccc1 [Phenindione] | 0.607
58 | Clc1ccc2c(c1)C(N1CCNCC1)=Nc1ccccc1O2 [Amoxapine] | 0.208
59 | CC[C@H]1OC(=O)[C@H](C)[C@@H](O[C@H]2C[C@@](C)(OC)[C@@H](O)[C@H](C)O2)[C@H](C)[C@@H](O[C@@H]2O[C@H](C)C[C@H](N(C)C)[C@H]2O)[C@](C)(O)C[C@@H](C)C(=O)[C@H](C)[C@@H](O)[C@]1(C)O [Erythromycin] | -4.03
60 | CO[C@H]1/C=C/O[C@@]2(C)Oc3c(C)c(O)c4c(O)c(c(/C=N/N5CCN(C)CC5)c(O)c4c3C2=O)NC(=O)/C(C)=C\C=C\[C@H](C)[C@H](O)[C@@H](C)[C@@H](O)[C@@H](C)[C@H](OC(C)=O)[C@@H]1C [Rifampicin] | -1.47
61 | CCCSc1ccc2[nH]c(NC(=O)OC)nc2c1 [Albendazole] | -0.935
62 | Cc1c(Cl)cccc1Nc1ccccc1C(=O)O [Tolfenamic acid] | 0.229
63 | Cc1ccc(N(CC2=NCCN2)c2cccc(O)c2)cc1 [Phentolamine hydrochloride] | 1.22
64 | CCc1ccc(CCOc2ccc(CC3SC(=O)NC3=O)cc2)nc1 (stereo unspecified) [Pioglitazone] | -0.613
65 | CO[C@@]1(NC(=O)C(C(=O)O)c2ccc(O)cc2)C(=O)N2C(C(=O)O)=C(CSc3nnnn3C)CO[C@@H]21 (stereo partly specified) [Moxalactam disodium salt] | -0.424
66 | C#C[C@]1(O)CC[C@H]2[C@@H]3CCC4=CC(=O)CC[C@@H]4[C@H]3CC[C@@]21C [Norethindrone] | -0.627
67 | C#C[C@]1(OC(C)=O)CC[C@H]2[C@@H]3CCC4=C[C@@H](OC(C)=O)CC[C@@H]4[C@H]3CC[C@@]21C [Ethynodiol diacetate] | -0.518
68 | Nc1ccc(S(=O)(=O)Nc2ncccn2)cc1 [Sulfadiazine] | -0.896
69 | Nc1ccc(O)c(C(=O)O)c1 [Mesalamine] | -0.364
70 | CCN(CC)CCOC(=O)C1(c2ccc([N+](=O)[O-])cc2)CCCC1 [Nitrocaramiphen hydrochloride] | -2.43
71 | CO[C@@]1(NC(=O)C2SC(=C(C(N)=O)C(=O)O)S2)C(=O)N2C(C(=O)O)=C(CSc3nnnn3C)CS[C@@H]21 (stereo partly specified) [Cefotetan] | 0.06

Rewritten comma-delimited: part of the list above.
Row,Compound,perinuclear lysosome accumulation
1,O=C1c2c(O)cccc2Cc2cccc(O)c21 [Anthralin],0.906
22,CC(Cc1cccc(C(F)(F)F)c1)NCCOC(=O)c1ccccc1 (stereo unspecified) [Benfluorex hydrochloride],0.313
33,OC(Cn1cncn1)(Cn1cncn1)c1ccc(F)cc1F [Fluconazole],-0.113
36,CC(C(=O)O)c1cccc(Oc2ccccc2)c1 (stereo unspecified) [Fenoprofen calcium salt dihydrate],2.16
68,Nc1ccc(S(=O)(=O)Nc2ncccn2)cc1 [Sulfadiazine],-0.896

Sorted by molar mass (smallest number first): some entries from above.
Row | Compound | perinuclear lysosome accumulation
15 | N=C(N)NC(=N)NCCc1ccccc1 [Phenformin hydrochloride] | -0.19
1 | O=C1c2c(O)cccc2Cc2cccc(O)c21 [Anthralin] | 0.906
16 | CO[C@H]1/C=C/O[C@@]2(C)Oc3c(C)c(O)c4c(O)c(c(/C=N/N5CCN(C6CCCC6)CC5)c(O)c4c3C2=O)NC(=O)/C(C)=C\C=C\[C@H](C)[C@H](O)[C@@H](C)[C@@H](O)[C@@H](C)[C@H](OC(C)=O)[C@@H]1C [Rifapentine] | -0.99

— the supplement of paper PMC8090911
